No constants are given. Whether binding was seen depends on the method and setting. In cells and extracts the contact can be indirect. Some binding calls cover weakened binding; strength is not graded here. Tags and fused reporters may be left off the sequences shown. Each block holds one binder with its values, some of them ahead of it.
Key:
[1] = target: T1, Myc-tagged ABHD5 (abhydrolase domain containing 5) (UniProt Q8WTS1); test: co-IP; HEK-293 cells co-transfected with HA-TRIM59 and Myc-ABHD5; lysates precipitated with anti-HA or anti-Myc agarose beads, blotted for the other tag; purified IgG as negative control
T1 sequence: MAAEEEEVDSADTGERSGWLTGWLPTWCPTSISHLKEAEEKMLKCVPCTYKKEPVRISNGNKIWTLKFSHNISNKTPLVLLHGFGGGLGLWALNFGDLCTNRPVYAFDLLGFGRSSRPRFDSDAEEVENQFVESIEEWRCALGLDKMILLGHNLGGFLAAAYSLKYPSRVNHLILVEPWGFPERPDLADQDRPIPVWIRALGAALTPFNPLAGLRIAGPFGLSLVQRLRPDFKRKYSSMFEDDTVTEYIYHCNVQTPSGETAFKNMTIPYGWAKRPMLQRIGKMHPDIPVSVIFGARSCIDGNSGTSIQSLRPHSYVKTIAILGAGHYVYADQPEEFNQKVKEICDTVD

[2] = target: T1, Myc-tagged ABHD5 (abhydrolase domain containing 5); test: proximity ligation; THP-1 macrophages transiently transfected with HA-TRIM59 and Myc-ABHD5; rabbit anti-HA and mouse anti-Myc, Duolink In Situ Red Kit, fixed and permeabilised cells
[3] = target: T2, HA-tagged TRIM59 (tripartite motif-containing 59) (human) (UniProt Q8IWR1); test: co-IP; HEK-293 cells co-transfected with HA-TRIM59 and Myc-ABHD5; lysates precipitated with anti-HA or anti-Myc agarose beads, blotted for the other tag; purified IgG as negative control
T2 sequence: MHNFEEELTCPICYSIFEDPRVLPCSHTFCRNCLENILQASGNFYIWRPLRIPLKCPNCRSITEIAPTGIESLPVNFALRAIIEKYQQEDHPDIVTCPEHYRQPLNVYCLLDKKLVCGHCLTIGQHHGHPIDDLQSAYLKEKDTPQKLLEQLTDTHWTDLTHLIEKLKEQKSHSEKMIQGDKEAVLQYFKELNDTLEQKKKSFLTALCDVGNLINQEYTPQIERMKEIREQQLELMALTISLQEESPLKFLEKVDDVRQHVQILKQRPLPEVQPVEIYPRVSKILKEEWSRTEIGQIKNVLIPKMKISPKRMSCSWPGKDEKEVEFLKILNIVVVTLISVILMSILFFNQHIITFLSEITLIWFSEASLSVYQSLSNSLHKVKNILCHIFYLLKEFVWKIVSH

binding [1]: binds
binding [2]: binds
B1: HA-tagged TRIM59 (tripartite motif-containing 59) (protein, UniProt Q8IWR1 1-403)
chain: T2 sequence

binding [3]: binds
B2: Myc-tagged ABHD5 (abhydrolase domain containing 5) (protein, UniProt Q8WTS1 1-349)
chain: T1 sequence

Source: PMC7457778
